PubChem BioAssay AID602196 | INSERM | 2012

- Aim: 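Genes whose knock-down alters cisplatin killing of lung cancer cells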
- System: human A549 lung cancer cells
- Reagents: siRNA pair against human genes
- Duration: 48 h transfection before cisplatin; time from cisplatin to read-out not stated
- Conditions: cisplatin at a dose killing half of control-siRNA cells; exact dose and duration not given
- Detection: 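Cisplatin cell death as a shift from the 50% death seen with control siRNA; siRNAs toxic or growth-blocking alone scored 0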
- Scale: two-siRNA summed score (-2 to +2): higher = both siRNAs protect from cisplatin killing; -2 means both sensitise
- Call rule: 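siRNAs harmful alone (LDH or WST-1) get 0; others get +1 for less and -1 for more cisplatin killing; genes are active when the two siRNAs give the same sign, summing to ±2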
- Calls: active = both siRNAs shift cisplatin killing the same way; inactive = no consistent shift, or siRNA harmful alone
The whole screen tested about 23,000 reagents; shown is a part drawn at random. Of all reagents, 455 (2%) got an active call. 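Active includes both protection and sensitisation; some change values fall well beyond the stated -50 to +50 range.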 Entries without a mark were called inactive. Further read-outs or replicates are left out here. Reagent sequences are not shown. Not given: the amount of reagent.

two-siRNA summed score (-2 to +2), by gene and reagent
HTR2B: SID131519720 1
ALG10: SID131511931 0
PLEKHG7: SID131520645 1
LOC391047: SID131506917 0
F13A1: SID131503628 0
APBB1IP: SID131508888 0
C12orf75: SID131519092 1
PRSS45P: SID131516524 0
PRSS42P: SID131514800 0
LOC439928: SID131518367 0
SOX5: SID131502383 -1
LOC440983: SID131522821 1
CNDP1: SID131506904 0
LOC440202: SID131522991 2 (active)
CARD17P: SID131505743 0
LOC441578: SID131511172 0
ICMT: SID131508191 0
HAS1: SID131503142 0
UQCC1: SID131514196 0
FAHD1: SID131514668 0
ATAD2: SID131501815 -1
SLC28A3: SID131506227 0
HSPA1L: SID131519160 1
LOC392173: SID131512812 0
C11orf52: SID131515138 0
ENTPD2: SID131520572 1
LOC440468: SID131517296 0
RALA: SID131508367 0
FAXC: SID131506295 0
LRIF1: SID131518410 0
RRAS: SID131514835 0
CDC42EP3: SID131516416 0
CSHL1: SID131506021 0
KCTD14: SID131507942 0
LOC400197: SID131513093 0
LOC442121: SID131511538 0
DRD3: SID131507428 0
VPS53: SID131509219 0
TBX10: SID131521329 1
LOC440010: SID131520774 1
CENPI: SID131517760 0
PPP2R5E: SID131519389 1
LOC402458: SID131512349 0
TIMCC: SID131513382 0
OACYLP: SID131517285 0
SLC5A6: SID131510665 0
ALDH2: SID131505978 0
LOC200373: SID131505660 0
ADAMTS1: SID131516036 0
GABRE: SID131516289 0
LOC389432: SID131521585 1
ZNF789: SID131521447 1
ARID3B: SID131516269 0
LOC388966: SID131512886 0
PRTFDC1: SID131505767 0
CDC73: SID131508514 0
C19orf73: SID131522496 1
TPI1: SID131518270 0
LYAR: SID131501772 -1
LOC400705: SID131507689 0
TKTL1: SID131501390 -1
LOC441082: SID131508080 0
LOC342618: SID131517287 0
SLC4A2: SID131521210 1
LOC439981: SID131520879 1
OS9: SID131501925 -1; SID131513955 0
LOC388885: SID131518186 0
CUL5: SID131500985 -1
SIRAL2: SID131504899 0
LOC440787: SID131513782 0
RBM34: SID131512212 0
RPS4X: SID131518609 0

Reagents listed so far with an active call:
two-siRNA summed score (-2 to +2), by gene and reagent
LOC440202: SID131522991 2 (active)
